Some of the results follow. Shown are side measurements of this screen, not its main read-out; they come without a call. Compounds called inactive in the main read-out are mostly missing here. Words in brackets tell the shape of the fitted curve; partial curves, single points and poor fits give uncertain potencies.
Test: qHTS Assay to Find Inhibitors of Chronic Active B-Cell Receptor Signaling
Conditions: ABC-DLBCL IkBa-CBG/CBR reporter, luminescence ratio (green luciferase fused to IkBa over red control in TMD8 lymphoma cells), 4 h
In short: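 Doxycycline induced both beetle luciferases in TMD8 lymphoma cells; IKK-driven degradation limits the IkappaBalpha-fused green signal, while red luminescence normalises for cell number and nonspecific effects. Compounds tested up to 46 uM, 4 hrs.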

[1] = measured here: CBR red luminescence, cell number
[2] = measured here: IkBa-CBG green luminescence

| Structure (SMILES) | AC50 [1] | AC50 [2] |
| --- | --- | --- |
| CCNc1nc(NCC)nc(OCCNS(=O)(=O)c2cc(C)ccc2C)n1 | 6.51 µM [falling, single point] | 4.11 µM [rising, partial curve, poor fit] |
| Cc1nn(CCCC(=O)N2CCN(c3ccc(F)cc3)CC2)c(C)c1[N+](=O)[O-] | 12.6 µM [falling, partial curve] | – |
| COc1ccc(S(=O)(=O)N2CCCCC2)cc1NC(=O)c1ccc(OC)c(OC)c1 | 2.06 µM [rising, full curve, poor fit] | 18.4 µM [falling, partial curve, poor fit] |
| CCOC(=O)Nc1ccc2c(c1)Nc1ccccc1S2 | 14.1 µM [falling, single point] | – |
| Cc1csc(NC(=O)CSc2nnc(Cn3c(=O)sc4ccccc43)n2-c2ccccc2)n1 | 20 µM [falling, partial curve, poor fit] | – |
| CC1(C)CC(=O)C(C(C2=C(O)CC(C)(C)CC2=O)c2ccc(Br)s2)C(=O)C1 (stereo not given) | 25.9 µM [falling, single point] | 20.6 µM [rising, single point] |
| Cc1ccc(S(=O)(=O)n2ccc3c2CCCC3=O)cc1 | 15.8 µM [rising, partial curve, poor fit] | – |
| CCC(C)(C(=O)NC1CCCCC1)N(C(=O)c1ccccn1)c1ccc(C)cc1 (stereo not given) | 14.6 µM [falling, partial curve, poor fit] | – |
| Cc1occc1C(=O)Nc1nccs1 | 8.2 µM [falling, partial curve, poor fit] | – |
| Cc1ccc(COc2ccc3c(c2)OCO3)cc1 | 5.62 µM [rising, full curve] | – |
| CCOC(=O)C(=CNc1ncccc1C)C(=O)OCC | 0.251 µM [rising, full curve, poor fit] | – |
| Cc1ccc(O)c(CNc2ccccn2)c1 | 1 µM [rising, full curve, poor fit] | – |
| COc1ccc(S(=O)(=O)N(C)C)cc1NC(=O)CSc1nnc(-c2cccnc2)o1 | 8.91 µM [rising, partial curve, poor fit] | – |
| CCCOc1ccc(N2C(=O)CC(NCC#N)C2=O)cc1 (stereo not given) | 2.51 µM [rising, full curve, poor fit] | – |
| CC(=O)c1ccc(NC(=O)CN2c3cccc4cccc(c34)S2(=O)=O)cc1 | 5.8 µM [rising, partial curve] | – |
| Cc1ccc(NC(=S)NCc2ccccc2)c(C)c1 | 31.6 µM [rising, partial curve, poor fit] | – |
| Cc1cc(/C=C2/SC(=O)N(CC(=O)OC(C)C)C2=O)c(C)n1C | 0.58 µM [rising, full curve, poor fit] | – |

Fetched one by one from above:

| Structure (SMILES) | AC50 [1] | AC50 [2] |
| --- | --- | --- |
| Cc1cc(/C=C2/SC(=O)N(CC(=O)OC(C)C)C2=O)c(C)n1C | 0.58 µM [rising, full curve, poor fit] | – |
| CCCOc1ccc(N2C(=O)CC(NCC#N)C2=O)cc1 (stereo not given) | 2.51 µM [rising, full curve, poor fit] | – |
